The whole screen tested about 400,000 compounds, of which about 3,700 (0.93%) were called active. The shares of active, inactive and inconclusive entries below differ from those in the screen. The call rests on the fitted dose curve; in most records, active means well fitted inhibition curve with a large enough effect; inconclusive means small, poorly fitted or top-dose-only effect, or another doubt; inactive means no such curve, though single readings can be large or run the other way. A potency beside an inconclusive call is a rough fit, not a confirmed value.
The molecules below were run against Vitamin D3 receptor (Homo sapiens) (UniProt P11473) (assay: Inhibitors of the vitamin D receptor (VDR): qHTS). Details: VDR-SRC2-3 peptide fluorescence polarization, 2 h; max response, negative = inhibition: hits give low values.
In short: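 Fluorescence polarization assay of small-molecule disruption of VDR binding to coregulator peptide SRC2-3. Compounds and controls pin-transferred, then read after 2 h incubation at ambient room temperature.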
On the % scale 0 is the no-effect control and ±100 the full control effect; potency means the concentration at half of the fitted maximal effect.

The chains behind the UniProt entries cited, without tags or fusion partners.
UniProt P11473, whole entry, looked up: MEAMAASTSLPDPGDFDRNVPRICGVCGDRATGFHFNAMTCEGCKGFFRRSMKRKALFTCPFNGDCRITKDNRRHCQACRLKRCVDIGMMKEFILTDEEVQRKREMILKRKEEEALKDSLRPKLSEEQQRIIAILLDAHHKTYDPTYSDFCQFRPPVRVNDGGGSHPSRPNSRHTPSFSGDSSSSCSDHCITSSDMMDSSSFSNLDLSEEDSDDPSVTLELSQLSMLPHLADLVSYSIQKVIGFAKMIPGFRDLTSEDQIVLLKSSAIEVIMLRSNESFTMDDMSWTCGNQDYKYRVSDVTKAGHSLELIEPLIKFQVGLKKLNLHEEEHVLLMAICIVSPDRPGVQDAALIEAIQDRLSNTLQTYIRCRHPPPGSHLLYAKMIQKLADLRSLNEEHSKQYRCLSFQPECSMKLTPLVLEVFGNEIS

SMILES	max response, negative = inhibition	Potency
CC(=O)N1CCCc2cc(S(=O)(=O)N(C)CC(=O)Nc3ccc(C(C)C)cc3)ccc21	inactive: 12.7%	–
CC1CC(C)CN(CC(O)COCc2ccccc2F)C1 (centres undefined)	inactive: -1.7%	–
CC(C)OC(=O)c1c(NC(=O)c2cccc(C(F)(F)F)c2)sc2c1CCCC2	–	inconclusive: 89.1 µM [inhibitor, partial curve]
CC1=NNC(=O)/C1=C\c1cn(-c2ccccc2)nc1-c1ccc(Cl)cc1	–	active: 12.6 µM
CN(C)C(CNC(=O)CCNC(=O)c1ccc(Cl)cc1)c1ccco1 (centres undefined)	–	inconclusive: 70.8 µM [inhibitor, partial curve]
O=C(O)C1CN(c2ncccc2[N+](=O)[O-])C1	–	inconclusive: 89.1 µM [inhibitor, single point]
CCOC(=O)CN(Cc1sccc1C)C(=O)Nc1ccc(OCC)cc1	–	inconclusive: 79.4 µM [inhibitor, single point]
Cc1ccc(NC(=O)CN(C)CC(=O)Nc2ccc(N3CCOCC3)cc2)cc1F	inactive: -9.07%	–
Cc1sc2nc(COC(=O)c3ccc(Cl)c(N)c3)[nH]c(=O)c2c1C	inactive: 11.7%	–
COC(=O)c1ccc(C23CC4(C2)[C@H](CN(Cc2ccc(-c5ccccc5)cc2)[C@@H]4c2ccccc2)C3c2ccc(C(F)(F)F)cc2)cc1 (some centres undefined)	inactive: -14.9%	–
CC1CCC(NC(=O)CNC(=O)Cc2cccc3ccccc23)CC1 (centres undefined)	–	inconclusive: 79.4 µM [inhibitor, single point]
O=C1CCNc2cc3ccccc3cc21	–	inconclusive: 11.2 µM [inhibitor, partial curve, poor fit]
CC(=O)NC1=C(NC2CCS(=O)(=O)C2)C(=O)c2ccccc2C1=O (centres undefined)	–	inconclusive: 89.1 µM [inhibitor, single point]
COc1ccc(/C=C/C(=O)c2c(C)cc(C)[nH]c2=O)c2ccccc12	–	inconclusive: 5.01 µM [inhibitor, full curve, poor fit]
COc1cc(C=O)ccc1OCCOCCOc1ccc(Cl)cc1Cl	–	inconclusive: 50.1 µM [inhibitor, partial curve, poor fit]
CNc1oc(C)nc1S(=O)(=O)c1ccccc1	inactive: -18%	–
CCCCn1c(N)c(N(CCOC)C(=O)c2ccc(S(=O)(=O)N3CCCCC3)cc2)c(=O)[nH]c1=O	–	inconclusive: 100 µM [inhibitor, single point]
COc1ccc(NC(=O)CN2CCN(CC(=O)Nc3ccccc3Cl)CC2)cc1	inactive: 13.4%	–
O=[N+]([O-])c1cc([N+](=O)[O-])c(Oc2c(Cl)cccc2Cl)cc1NN1CCCCC1	inactive: 3.69%	–
COc1ccccc1N1CCN(C(=O)c2cc(-c3ccco3)on2)CC1	inactive: -0.181%	–
Cn1c(SCC(=O)N2CCCc3ccccc32)nc2cccnc21	–	inconclusive: 1 µM [inhibitor, full curve]
COc1ccccc1CNC(=O)c1cc2sccc2n1Cc1ccc(F)cc1	–	active: 89.1 µM

SMILES	max response, negative = inhibition	Potency
COc1ccc(/C=C/C(=O)c2cc(Br)ccc2O)cc1OC	–	inconclusive: 79.4 µM [inhibitor, partial curve, poor fit]
COc1ccc(CNC(=S)Nc2cc(C)ccc2C)cc1	inactive: 22.2%	–
Cc1ccc(S(=O)(=O)CCC(=O)Nc2sccc2C#N)cc1	inactive: -11.8%	–
Cc1ccc(N2C(=O)SC(Cc3ccccc3)C2=O)cc1 (centres undefined)	–	inconclusive: 89.1 µM [inhibitor, single point]
CCOC(=O)CSc1nnc(-c2nnc(SCC(=O)OCC)n2CC)n1CC	–	inconclusive: 11.2 µM [inhibitor, partial curve, poor fit]
CCSc1ccccc1C(=O)n1nnc2ccccc21	–	active: 50.1 µM
CCCCC1=CC2=C(c3ccco3)C(=O)C(C)(OC(=O)c3ccc(OC)cc3)C(=O)C2=CN1Cc1ccc2c(c1)OCO2 (centres undefined)	–	inconclusive: 63.1 µM [inhibitor, partial curve, poor fit]
O=C(CSc1c2c(nc3ccc(Cl)cc13)CCCC2)N1CCCCC1	–	inconclusive: 100 µM [inhibitor, single point]
O=C(COc1ccccc1F)NC12CC3CC(CC(C3)C1)C2	–	inconclusive: 25.1 µM [inhibitor, partial curve, poor fit]
Cn1c(SCC(=O)c2ccccc2)nnc1-c1cccc(N)c1	inactive: -6.27%	–
COCCNC(=S)Nc1cc(S(=O)(=O)N2CCOCC2)ccc1N1CCCCC1	–	active: 35.5 µM
CCOC(=O)c1cccc(NC(=O)CCc2c(C)nc3c4cccnc4nn3c2C)c1	–	inconclusive: 70.8 µM [inhibitor, partial curve]
Cc1ccc(CN2C(=O)C3(SCC(=O)N3c3ccc(C)c(C)c3)c3ccccc32)cc1 (centres undefined)	inactive: 7.91%	–
C=CCOC(=O)/C=C/C(=O)NC(N)=O	–	inconclusive: 79.4 µM [inhibitor, partial curve, poor fit]
O=C1SC(SCc2ccccc2Cl)=N/C1=C\c1ccc(C(=O)O)cc1	–	inconclusive: 100 µM [inhibitor, single point]
Cc1cccc(N2C(=O)C(Cl)=C(Nc3c(C)n(C)n(-c4ccccc4)c3=O)C2=O)c1C	–	inconclusive: 31.6 µM [inhibitor, partial curve, poor fit]
CC(=O)c1cc(C#N)c(N2CCCC2)nc1C	–	inconclusive: 44.7 µM [inhibitor, partial curve]
CCC(=O)Nc1ccccc1Sc1ncnc2scc(-c3ccccc3)c12	–	inconclusive: 89.1 µM [inhibitor, single point]
Nc1cc2nsnc2cc1Br	–	inconclusive: 79.4 µM [inhibitor, partial curve, poor fit]
CCCCN(C1CCS(=O)(=O)C1)S(=O)(=O)c1cccs1 (centres undefined)	–	inconclusive: 89.1 µM [inhibitor, partial curve, poor fit]
N#C/C(=C\c1ccccc1Br)C(=O)NC1CC1	–	inconclusive: 89.1 µM [inhibitor, partial curve]
Oc1c(Br)cc(Br)cc1/C=N/n1c(-c2ccccc2)n[nH]c1=S	–	inconclusive: 89.1 µM [inhibitor, single point]

3 consecutive records out of the list so far, for reference:
SMILES	max response, negative = inhibition	Potency
CC(=O)N1CCCc2cc(S(=O)(=O)N(C)CC(=O)Nc3ccc(C(C)C)cc3)ccc21	inactive: 12.7%	–
CC1CC(C)CN(CC(O)COCc2ccccc2F)C1 (centres undefined)	inactive: -1.7%	–
CC(C)OC(=O)c1c(NC(=O)c2cccc(C(F)(F)F)c2)sc2c1CCCC2	–	inconclusive: 89.1 µM [inhibitor, partial curve]

From PubChem BioAssay AID504847 (National Center for Advancing Translational Sciences (NCATS), 2011)
